Measurements taken from patent US9204645B2, “Insecticidal aromatic amides” (BAYER INTELLECTUAL PROPERTY GMBH, priority 2011, dated 2015).
At least one structure is not confirmed: it was looked up by name or label, or the drawing left a doubt. Some entries repeat one wording, which the source may state once for all of them.

Columns and labels:
Assay type in all cases: in vivo
[1] = system: greenhouse red spider mite (Tetranychus urticae); assay: Tetranychus urticae spray test, OP-resistant (TETRUR), bean plants
Description: Tetranychus urticae—Spray Test, OP-resistant (TETRUR) • Solvent: 7 parts by weight of dimethylformamide • Emulsifier: 2 parts by weight of alkylaryl polyglycol ether
(§1) To produce a suitable preparation of active compound, 1 part by weight of active compound is mixed with the stated amounts of solvent and emulsifier, and the concentrate is diluted with emulsifier-containing water to the desired concentration. If the addition of ammonium salts or/and penetrants is required, these are in each case added in a concentration of 1000 ppm to the solution of the preparation.
Bean plants (Phaseolus vulgaris) which are heavily infested by all stages of the greenhouse red spider mite (Tetranychus urticae) are sprayed with an active compound preparation of the desired concentration.
(§2) After the desired period of time, the effect in % is determined. 100% means that all of the spider mites have been killed; 0% means that none of the spider mites have been killed.

[2] = system: greenhouse red spider mite (Tetranychus urticae); assay: Tetranychus urticae drench test, OP-resistant, systemic treatment (TETRUR sys.)
Description: Tetranychus urticae—Drench Test, OP-resistant, systemic treatment (TETRUR sys.)
• Solvent: 7 parts by weight of dimethylformamide • Emulsifier: 2 parts by weight of alkylaryl polyglycol ether
as §1, with “with” for “with emulsifier-containing”
Bean plants (Phaseolus vulgaris) which are heavily infested by all stages of the greenhouse red spider mite (Tetranychus urticae) are watered with an active compound preparation of the desired concentration.
as §2

[3] = system: greenhouse red spider mite (Tetranychus urticae); assay: Tetranychus urticae spray test, OP-resistant (TETRUR), bean leaf discs
Description: Tetranychus urticae—Spray Test; OP-resistant (TETRUR)
(§3) • Solvents: 78.0 parts by weight of acetone • 1.5 parts by weight of dimethylformamide • Emulsifier: 0.5 part by weight of alkylaryl polyglycol ether
(§4) To produce a suitable preparation of active compound, 1 part by weight of active compound is mixed with the stated amounts of solvents and emulsifier, and the concentrate is diluted with emulsifier-containing water to the desired concentration.
Discs of bean leaves (Phaseolus vulgaris) which are infested by all stages of the greenhouse red spider mite (Tetranychus urticae) are sprayed with an active compound preparation of the desired concentration.
as §2

[4] = system: caterpillars of the armyworm (Spodoptera frugiperda); assay: Spodoptera frugiperda spray test (SPODFR)
Description: Spodoptera frugiperda—Spray Test (SPODFR)
as §4, with “• Solvents: 78.0 parts by weight of acetone • 1.5 parts by weight of dimethylformamide • Emulsifier: 0.5 part by weight of alkylaryl polyglycol ether • To” for “To”
Leaf discs of maize (Zea mays) are sprayed with an active compound preparation of the desired concentration and, after drying, populated with caterpillars of the armyworm (Spodoptera frugiperda).
After the desired period of time, the effect in % is determined. 100% means that all of the caterpillars have been killed; 0% means that none of the caterpillars have been killed.

[5] = system: green peach aphid (Myzus persicae); assay: Myzus spray test (MYZUPE)
Description: Myzus—Spray Test (MYZUPE)
as §3, §4
Discs of Chinese cabbage leaves (Brassica pekinensis) infested by all stages of the green peach aphid (Myzus persicae) are sprayed with an active compound preparation of the desired concentration.
After the desired period of time, the effect in % is determined. 100% here means that all of the aphids have been killed; 0% means that no aphids have been killed.

[6] = system: larvae of the mustard beetle (Phaedon cochleariae); assay: Phaedon cochleariae spray test (PHAECO)
Description: Phaedon Cochleariae—Spray Test (PHAECO)
as §3, §4
After the desired period of time, the effect in % is determined 100% means that all of the beetle larvae have been killed; 0% means that none of the beetle larvae have been killed.

SMILES	efficacy compared to the prior art [1]	efficacy compared to the prior art [2]	efficacy compared to similar compounds of the prior art [3]	efficacy compared to similar compounds of the prior art [4]	efficacy compared to similar compounds of the prior art [5]	efficacy compared to similar compounds of the prior art [6]
CC(=O)NCc1cc(NC(=O)c2c(C(F)(F)F)c(C(F)(F)C(F)(F)F)nn2C)ccc1F [Example 13]	superior efficacy	superior efficacy				
CC(=O)NCc1cc(N(C)C(=O)c2c(C(F)(F)F)c(C(F)(F)C(F)(F)F)nn2C)ccc1F [Example 8]			superior efficacy	superior efficacy	superior efficacy	
CC(=O)NCc1c(F)ccc(NC(=O)c2c(C(F)(F)F)c(C(F)(F)C(F)(F)F)nn2C)c1F [Example 11]			superior efficacy			superior efficacy
CC(=O)NCc1c(F)ccc(N(C)C(=O)c2c(C(F)(F)F)c(C(F)(F)C(F)(F)F)nn2C)c1F [Example 7, N-[3-(acetamidomethyl)-2,4-difluorophenyl]-N,1-dimethyl-3-(pentafluoroethyl)-4-(trifluoromethyl)-1H-pyrazole-5-carboxamide]			superior efficacy		superior efficacy	superior efficacy
CN(C(=O)c1c(C(F)(F)F)c(C(F)(F)C(F)(F)F)nn1C)c1cccc(CNC(=O)C2CC2)c1 [Example 10]			superior efficacy		superior efficacy	
